# Data taken from PubChem BioAssay AID328 (DTP/NCI, 2004).
# The list shows only some results of the screen, not a fair sample: it gathers tests that were run many times, whatever their T/C, doses with no T/C, and many T/C values between a quarter and a half above the control. Further doses and runs are listed elsewhere. T/C gives the treated animals as a percentage of the vehicle group. Some doses have a count of surviving animals in place of a T/C: the source holds a T/C of zero for them, seemingly a mark for toxic or unscored doses. Some survivor counts are full or nearly so, which does not show that the dose was tolerated: survival well below the control is almost never listed, so the zero probably covers shortened survival too. Counts of survivors are from the toxicity check (mostly the fifth day) where no day follows; animals may have died later. Schedules are NCI's codes, read here as Q, the interval in days (D) or hours (H), X, the number of doses. Some entries were tested several times; the results are listed from low to high. Some structures stand for samples that the source files as different forms (salt, stereo form or complex); doses refer to the form tested. Where survival is the endpoint, this PubChem deposit counts one and a half times the control or more as active, and values a quarter to a half above the control carry no call in these data; other NCI protocols may use other cut-offs. Some T/C values are followed by the survivors on the day toxicity was checked, most often the fifth; without a count, all were alive then.
# System: BDF1 mice, P388 leukemia ip, median survival T/C
# Assay: NCI In Vivo Anticancer Drug Screen. Data for tumor model P388 Leukemia (intraperitoneal) in B6D2F1 (BDF1) mice
# Settings: T/C endpoint: median survival time, higher T/C = longer survival
# Summary of the method: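 Transplantable tumour in mice; compound vs vehicle dosing; survival scored; ratio of treated to control reported.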
# [1] = dose: 200.0 mg/kg/injection, schedule: Q01DX009 (ip), vehicle: saline with Tween-80
# [2] = dose: 50.0 mg/kg/injection, schedule: Q01DX009 (ip), vehicle: saline with Tween-80
# [3] = dose: 400.0 mg/kg/injection, schedule: Q04DX003 (ip), vehicle: saline
# [4] = dose: 400.0 mg/kg/injection, schedule: Q04DX003 (ip), vehicle: saline with Tween-80
# [5] = dose: 25.0 mg/kg/injection, schedule: Q04DX003 (ip), vehicle: saline with Tween-80
# [6] = dose: 50.0 mg/kg/injection, schedule: Q04DX003 (ip), vehicle: saline with Tween-80
# [7] = dose: 25.0 mg/kg/injection, schedule: Q01DX009 (ip), vehicle: saline
# [8] = dose: 25.0 mg/kg/injection, schedule: Q04DX003 (ip), vehicle: saline
# [9] = dose: 50.0 mg/kg/injection, schedule: Q04DX003 (ip), vehicle: saline
# [10] = dose: 50.0 mg/kg/injection, schedule: Q01DX009 (ip), vehicle: Klucel (hydroxypropylcellulose) (HPC)
# [11] = dose: 400.0 mg/kg/injection, schedule: Q04DX003 (ip), vehicle: Klucel (hydroxypropylcellulose) (HPC)
# [12] = dose: 50.0 mg/kg/injection, schedule: Q01DX009 (ip), vehicle: saline
# [13] = dose: 100.0 mg/kg/injection, schedule: Q01DX009 (ip), vehicle: saline
# [14] = dose: 200.0 mg/kg/injection, schedule: Q04DX003 (ip), vehicle: saline
# [15] = dose: 400.0 mg/kg/injection, schedule: Q01DX009 (ip), vehicle: water
smiles,measurement,setting,value
Cc1[nH]nc(-c2ccon2)c1N=O,survivor count,[1],1 of 6
CN1C(=O)Nc2ccc(Cl)cc2C1(O)c1ccccc1 (stereo unspecified),survivor count,[2],6 of 6
same,survivor count,[1],6 of 6
COc1cc(NC(C)CCCN)c2ncccc2c1Sc1ccc(Cl)cc1 (stereo unspecified),survivor count,[2],0 of 6
same,survivor count,"dose: 100.0 mg/kg/injection, schedule: Q01DX009 (ip), vehicle: saline with Tween-80",0 of 6
same,survivor count,[1],0 of 6
CC(C)C1(C(=O)NNC(=O)CCCc2ccc(N(CCCl)CCCl)cc2)OC2(O)CCCCCN2C1=O (stereo unspecified),survivor count,"dose: 200.0 mg/kg/injection, schedule: Q04DX003 (ip), vehicle: other",5 of 6
same,survivor count,"dose: 400.0 mg/kg/injection, schedule: Q04DX003 (ip), vehicle: other",1 of 6
c1ccc(Nc2ncc3cnccn23)cc1,survivor count,[3],3 of 6
COC(=O)c1cncc(C(=O)OC)c1,T/C,[4],136 % of control
CSc1nc([N+](=O)[O-])c2cnccn12,survivor count,[2],2 of 6
same,survivor count,"dose: 100.0 mg/kg/injection, schedule: Q04DX003 (ip), vehicle: saline with Tween-80",1 of 6
CNC(=N)c1ccc(NC(=N)c2ccc(NC(=O)Nc3ccc(C(=N)Nc4ccc(C(=N)NC)cc4)cc3)cc2)cc1,T/C,"dose: 3.0 mg/kg/injection, schedule: Q01DX009 (ip), vehicle: saline with Tween-80",133 % of control
same,T/C,"dose: 5.0 mg/kg/injection, schedule: Q01DX009 (ip), vehicle: saline with Tween-80",135 % of control
same,survivor count,"dose: 18.0 mg/kg/injection, schedule: Q01DX009 (ip), vehicle: saline with Tween-80",2 of 6 and 5 of 6
same,survivor count,[5],2 of 6
same,survivor count,[6],0 of 6
CS(=O)(=O)OCCN1CCC2(CC1)SSC1(CCN(CCOS(C)(=O)=O)CC1)S2,T/C,"dose: 5.0 mg/kg/injection, schedule: Q01DX009 (ip), vehicle: saline",144 % of control
same,T/C,"dose: 6.25 mg/kg/injection, schedule: Q01DX009 (ip), vehicle: saline",136 % of control [5 of 6 alive]
same,T/C,"dose: 12.5 mg/kg/injection, schedule: Q04DX003 (ip), vehicle: saline",130 % of control
same,survivor count,"dose: 20.0 mg/kg/injection, schedule: Q01DX009 (ip), vehicle: saline",1 of 6
same,survivor count,"dose: 21.0 mg/kg/injection, schedule: Q04DX003 (ip), vehicle: saline",3 of 6
same,survivor count,[7],0 of 6
same,survivor count,[8],6 of 6
same,survivor count,[9],0 of 6
ClCc1ccncc1,survivor count,[3],1 of 6
Cc1cccc2c(Nc3ccc(NS(C)(=O)=O)cc3)c3ccccc3nc12,T/C,"dose: 1.33 mg/kg/injection, schedule: Q01DX009 (ip), vehicle: saline with Tween-80",130 % of control
same,T/C,"dose: 2.0 mg/kg/injection, schedule: Q01DX009 (ip), vehicle: saline with Tween-80",145 % of control
same,T/C,"dose: 4.4 mg/kg/injection, schedule: Q04DX003 (ip), vehicle: saline with Tween-80",131 % of control
same,T/C,"dose: 6.6 mg/kg/injection, schedule: Q04DX003 (ip), vehicle: saline with Tween-80",140 % of control
same,T/C,"dose: 8.8 mg/kg/injection, schedule: Q04DX003 (ip), vehicle: saline with Tween-80",136 % of control
same,T/C,"dose: 10.0 mg/kg/injection, schedule: Q04DX003 (ip), vehicle: saline with Tween-80",136 % of control
same,T/C,"dose: 13.2 mg/kg/injection, schedule: Q04DX003 (ip), vehicle: saline with Tween-80",145 % of control
same,survivor count,"dose: 40.0 mg/kg/injection, schedule: Q01DX009 (ip), vehicle: saline with Tween-80",6 of 6
same,survivor count,[4],5 of 6
O=C(C[n+]1ccccc1)N/N=C/c1ccc(O)c(O)c1,survivor count,"dose: 400.0 mg/kg/injection, schedule: Q01DX009 (ip), vehicle: saline with Tween-80",0 of 6
same,survivor count,[4],2 of 6
Clc1ccc(N=Cc2ccccc2)cc1,survivor count,"dose: 400.0 mg/kg/injection, schedule: Q01DX009 (ip), vehicle: Klucel (hydroxypropylcellulose) (HPC)",3 of 6
COc1ccc2nc3cc(Cl)ccc3c(NCCO)c2c1,survivor count,"dose: 300.0 mg/kg/injection, schedule: Q01DX010 (ip), vehicle: saline",2 of 7
CNC(=N)c1ccc(NC(=N)c2ccc(NC(=O)Nc3ccc(NC(=O)Nc4ccc(C(=N)Nc5ccc(C(=N)NC)cc5)cc4)cc3)cc2)cc1,T/C,"dose: 2.6 mg/kg/injection, schedule: Q04DX003 (ip), vehicle: Klucel (hydroxypropylcellulose) (HPC)",137 % of control
same,T/C,"dose: 4.5 mg/kg/injection, schedule: Q01DX009 (ip), vehicle: Klucel (hydroxypropylcellulose) (HPC)",142 % of control
same,survivor count,[10],6 of 6
same,survivor count,"dose: 100.0 mg/kg/injection, schedule: Q01DX009 (ip), vehicle: Klucel (hydroxypropylcellulose) (HPC)",6 of 6
same,survivor count,"dose: 200.0 mg/kg/injection, schedule: Q04DX003 (ip), vehicle: Klucel (hydroxypropylcellulose) (HPC)",4 of 6
same,survivor count,[11],2 of 6
CCCCCCCCCCCCCCCc1ccc(C(=O)C[n+]2ccccc2)cc1,T/C,[5],131 % of control
same,T/C,"dose: 37.5 mg/kg/injection, schedule: Q04DX003 (ip), vehicle: saline with Tween-80",136 % of control
CC/C(=C\c1ccccc1)[N+](=O)[O-],survivor count,[12],4 of 6
same,T/C,[13],125 % of control
same,survivor count,[13],0 of 6
same,survivor count,"dose: 150.0 mg/kg/injection, schedule: Q01DX009 (ip), vehicle: saline",0 of 6
same,survivor count,[14],6 of 6
same,survivor count,[3],0 of 6
CC(=O)c1cccc(OCC(O)CN(C(C)C)C(C)C)c1 (stereo unspecified),survivor count,[3],0 of 6
CN(C)CCCN1c2ccccc2Sc2ccc(Cl)cc21,T/C,[7],136 % of control
same,T/C,[8],143 % of control
same,survivor count,[12],4 of 6
same,survivor count,[6],2 of 6
same,survivor count,[9],6 of 6
same,survivor count,"dose: 100.0 mg/kg/injection, schedule: Q04DX003 (ip), vehicle: saline",5 of 6 and 6 of 6
same,survivor count,[14],0 of 6
NC(=O)n1cccn1,survivor count,"dose: 125.0 mg/kg/injection, schedule: Q01DX010 (ip), vehicle: water",6 of 6
same,survivor count,"dose: 250.0 mg/kg/injection, schedule: Q01DX010 (ip), vehicle: water",3 of 6
N#Cc1nc2ccccc2nc1C#N,survivor count,"dose: 12.5 mg/kg/injection, schedule: Q01DX009 (ip), vehicle: saline",6 of 6
same,T/C,[7],127 % of control
same,survivor count,[10],4 of 6
same,T/C,[12],138 % of control
same,survivor count,"dose: 75.0 mg/kg/injection, schedule: Q01DX009 (ip), vehicle: Klucel (hydroxypropylcellulose) (HPC)",0 of 6 and 5 of 6
same,survivor count,"dose: 115.0 mg/kg/injection, schedule: Q01DX009 (ip), vehicle: Klucel (hydroxypropylcellulose) (HPC)",0 of 6
same,survivor count,"dose: 170.0 mg/kg/injection, schedule: Q01DX009 (ip), vehicle: Klucel (hydroxypropylcellulose) (HPC)",0 of 6
CCC(CCC(C)C1CCC2C3CC=C4CC(OC5OC(CO)C(O)C(O)C5O)CCC4(C)C3CCC12C)C(C)C (stereo unspecified),survivor count,[11],5 of 6
CCOC(=O)C(C)(OCC)OCC,T/C,[15],131 % of control [5 of 6 alive]
CC(O)Cc1c[nH]c(=O)[nH]c1=O (stereo unspecified),survivor count,[15],4 of 6
COc1cc([C@@H]2c3cc4c(cc3[C@H](OC3OC5COC(c6ccccc6)OC5C(O)C3O)[C@H]3COC(=O)[C@H]23)OCO4)cc(OC)c1OC (stereo partly specified),survivor count,"dose: 100.0 mg/kg/injection, schedule: Q01DX010 (ip), vehicle: carboxymethylcellulose (CMC)",6 of 6
same,survivor count,"dose: 200.0 mg/kg/injection, schedule: Q01DX010 (ip), vehicle: carboxymethylcellulose (CMC)",6 of 6
same,survivor count,"dose: 400.0 mg/kg/injection, schedule: Q01DX010 (ip), vehicle: carboxymethylcellulose (CMC)",0 of 6
